Here are results for one compound from patent US20240300940A1, “Phenothiazinyl Compounds and Uses” (Prosetta Biosciences, Inc., priority 2023, published 2024).

In the test the test system is NorA overexpressing S. aureus. The class given is cell-based. The following applies: NorA overexpression induced by EtBr.

As for `O=C(O)c1cn(C2CC2)c2cc(N3CCNCC3)c(F)cc2c1=O` [Ciprofloxacin], the “effect of NorA efflux pump overexpression on MIC” value is given as “affects Ciprofloxacin MIC”.
